Drawing on PMC7113852 (Antiviral Research, 2018), this text covers EC50 for one molecule.

Read-outs that look alike come from different tables or passages of the source.

The subject of this experiment is EV1. In words: microbe, parasite or virus in culture. The note with it: Enterovirus B, RPE. The class given is cell-based, Echovirus 1.

`CNCCC(Oc1ccc(C(F)(F)F)cc1)c1ccccc1` (centres unmarked) [Fluoxatine]: the EC50 was found to be 340 nM (read-out: EC50 CTG) and 720 nM (read-out: EC50 CTxG).

A word on the EC50: it is the concentration giving half of the maximal effect.
